Measured values from US12290521B2, “Methods and materials for identifying and treating BET inhibitor-resistant cancers” (Mayo Foundation for Medical Education and Research, priority 2018, dated 2025).

System: C4-2 cells
Test: RNA-seq transcriptome analysis in C4-2 cells
Assay type: cell-based, human
Conditions: JQ1 1 μM, 24 hours

Cc1sc2c(c1C)C(c1ccc(Cl)cc1)=N[C@@H](CC(=O)OC(C)(C)C)c1nnc(C)n1-2 [JQ1]
number of JQ1-downregulated genes in both control and SPOP-F133V cells: 5,079 genes
number of genes suppressed by JQ1 in control cells but unchanged or upregulated in F133V-mutant cells: 1,017 genes
